# The full ranking holds about 33,000 sequences; the median of “E-score (-0.5 to 0.5)” is about -0.015, and the highest 2% start at about 0.3. This is one part of the list.
# Target: T1, Abf1 (UniProt P14164)
# T1 sequence: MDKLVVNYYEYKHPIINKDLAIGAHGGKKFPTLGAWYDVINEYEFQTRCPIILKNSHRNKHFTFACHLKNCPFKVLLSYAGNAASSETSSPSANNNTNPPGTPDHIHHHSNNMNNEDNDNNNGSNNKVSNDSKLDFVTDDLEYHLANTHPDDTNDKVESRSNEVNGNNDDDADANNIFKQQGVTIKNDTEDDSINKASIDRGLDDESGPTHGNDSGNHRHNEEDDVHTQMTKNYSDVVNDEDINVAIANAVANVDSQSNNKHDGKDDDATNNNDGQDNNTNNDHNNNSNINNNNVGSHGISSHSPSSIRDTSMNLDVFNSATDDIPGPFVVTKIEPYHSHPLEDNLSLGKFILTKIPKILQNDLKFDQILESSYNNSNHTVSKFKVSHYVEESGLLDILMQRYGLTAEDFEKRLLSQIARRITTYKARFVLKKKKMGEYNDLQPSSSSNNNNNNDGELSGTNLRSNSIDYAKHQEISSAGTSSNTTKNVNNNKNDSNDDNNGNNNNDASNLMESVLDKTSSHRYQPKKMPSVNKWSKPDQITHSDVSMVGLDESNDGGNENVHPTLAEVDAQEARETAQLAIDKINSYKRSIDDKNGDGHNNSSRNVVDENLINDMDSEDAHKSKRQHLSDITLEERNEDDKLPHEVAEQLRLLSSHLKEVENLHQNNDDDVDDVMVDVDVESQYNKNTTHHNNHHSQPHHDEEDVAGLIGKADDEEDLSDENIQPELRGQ
# Test: PBM E-score (8-mer binding enrichment) (E-score (-0.5 to 0.5)); higher = stronger / more preferred TF binding
# Conditions: protein concentration: 200 nM; construct: GST-full length
# Experimental: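 Universal 'all 10-mer' protein binding microarrays (Agilent AMADID 015681) probed with GST-tagged S. cerevisiae TFs (full-length or DBD) made by in vitro transcription/translation (PURExpress), about 100-200 nM. Bound TF was detected with fluorescent anti-GST. Each ungapped 8-mer (which stands for itself and its reverse complement) is scored by the PBM enrichment score (E-score), a modified Wilcoxon-Mann-Whitney statistic from -0.5 to +0.5, computed with the Universal PBM Analysis Suite. Scale: above 0.35 generally sequence-specific binding.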
row,Sequence,PBM E-score
1,CATCGAGG,-0.129
2,GTGCTCAA,0.178
3,CCTCCCCC,-0.409
4,AGAAAGTA,0.117
5,GGCGCGAC,-0.0287
6,CCGTGCAC,0.31
7,AAATGCCA,0.0339
8,ATCCTCCC,-0.202
9,CATTACCA,0.045
10,AGGCGGGG,-0.235
11,CAAGGACC,-0.049
12,ACGTGTAA,0.235
13,AAGCGCAG,-0.116
14,ATTATTTA,0.254
15,ATATTCGA,0.0536
16,CCTTACTA,0.0197
17,ACACTGTA,0.0152
18,TCTCTCCA,-0.031
19,TCCCAGAA,-0.0505
20,CCCGAATC,-0.0912
21,TCGCCTCA,0.0789
22,GTATGCGA,0.0467
23,AGCGTACC,-0.229
24,ACAGATAA,-0.0725
25,CTCCGTTA,0.172

# In another format: results already given.
row | Sequence | PBM E-score
3 | CCTCCCCC | -0.409
11 | CAAGGACC | -0.049
17 | ACACTGTA | 0.0152
20 | CCCGAATC | -0.0912
21 | TCGCCTCA | 0.0789

# (list continues)

row,Sequence,PBM E-score
1,AATCAATC,0.157
2,GATGTTAA,0.109
3,ACGTGAAC,0.00568
4,CGTGGAAC,0.206
5,ATTGTGGA,-0.0505
6,GACGGGGA,0.168
7,CGCGGGCC,-0.0335
8,CCATTCAG,-0.098
9,CAGATGCC,-0.146
10,CACTACAG,-0.0739
11,CGGAGTAC,0.00568
12,GGTAACCA,-0.206
13,ATGTAGTC,0.0332
14,GCTTTGAA,-0.0788
15,TGATCCCA,-0.0944
16,CCCGTGAG,0.0776
17,CCCGCAGG,-0.169
18,TAGTACAA,0.098
19,AAAAGCCA,-0.0538
20,CGCACTTA,-0.0116
21,TCGGTACA,-0.0742
22,ACGTCAGG,-0.0567
23,CATCGGGG,-0.206
24,AAAGGCTG,-0.236
25,CACTTCTA,0.047

# Part of the list above, as tab-separated lines.
row	Sequence	PBM E-score
5	ATTGTGGA	-0.0505
6	GACGGGGA	0.168
14	GCTTTGAA	-0.0788
24	AAAGGCTG	-0.236

# Additional entries follow.

row,Sequence,PBM E-score
1,AAGAACGA,0.253
2,CTGATCAC,0.294
3,GCTTGGTA,-0.0205
4,AGGTCCTA,-0.211
5,GGATGGGA,-0.25
6,CATGGTAC,-0.136
7,GCTCCAAA,-0.0766
8,ATCCTATG,0.0287
9,AACGAGCA,0.108
10,ATTAATAA,0.129
11,ATCTCCGG,-0.067
12,AATCATGG,-0.0546
13,TGAGGGAA,-0.159
14,ATTTAAGG,0.171
15,CTACGCTA,-0.0892
16,AACGTCTC,0.0454
17,AATAGTCA,0.204
18,AGCAGGCC,-0.212
19,ATTTCTGG,-0.0765
20,ATCTCGAA,0.0741
21,GGAGGATA,0.0711
22,CTGTGAGC,0.0673
23,CGTCATCA,0.349
24,CCCTACAC,-0.0163
25,AATGAGGT,0.184

row,Sequence,PBM E-score
1,TACACGTA,0.07
2,CTAGTCTC,-0.138
3,CAACGCAC,-0.0614
4,ATAATAGC,0.0936
5,CCTGTTCA,-0.0118
6,AAATTTTC,0.0539
7,ACTTGTGG,-0.236
8,CACTTAGC,-0.112
9,ACCTATCC,-0.0243
10,CATGACTA,0.152
11,AATTAATG,0.128
12,CCCACAAG,-0.302
13,CAAGGAGC,-0.363
14,AAGGATCG,-0.0401
15,TCGACTAA,0.00887
16,CCGTGTCA,0.268
17,CTGCTACA,-0.0874
18,CGCGGAGA,0.0532
19,ATTCCTGA,-0.088
20,AAATGACA,0.358
21,TCGAGACA,0.0475
22,CCGGGGCC,-0.183
23,CCCCCCCC,-0.455
24,CAAACTTC,0.0794
25,AGGTACTA,0.0847

row,Sequence,PBM E-score
1,CCCTGGGC,-0.325
2,ATATCCGA,0.2
3,AGTATCCG,0.209
4,ACGGAGTC,0.0181
5,CCCCGGTA,-0.16
6,CACCCCCC,-0.356
7,AAAACAGC,-0.235
8,CACGGACC,0.0752
9,GTCCGATA,0.0454
10,TGTCGCAA,0.00536
11,AACCCTAG,-0.00875
12,GAGGACGC,-0.202
13,GAATGAGC,0.051
14,GAGCTGGC,-0.166
15,CCGTAGTC,-0.0228
16,ACACAGGA,-0.0696
17,CGTCCAGC,-0.0241
18,GCATGAGC,0.0199
19,ATTGTGGC,0.0319
20,AAACCTCA,0.048
21,AAACGACC,0.228
22,AACATGGC,-0.172
23,AATGGGAA,-0.238
24,ATACAATG,0.132
25,GGGGCACC,-0.23

row,Sequence,PBM E-score
1,AAGAAGAT,0.141
2,CGGTGAAA,0.186
3,AAAGTAAA,0.00942
4,CTTTTCCC,0.0095
5,ATTGCATC,-0.114
6,ATGAGTAA,-0.0375
7,AGAAAGTG,-0.0413
8,GTACATAC,0.0732
9,TCTGCAAA,0.0364
10,AGAGCCTA,-0.221
11,AGCGCCGA,-0.115
12,ATCACAAC,0.176
13,AAGAAATA,0.146
14,ATGCTATA,0.0713
15,CTCCTTTA,-0.178
16,GCAATAGA,0.0325
17,AACACGTT,-0.0453
18,GCTCCACA,-0.197
19,CAACTGAC,-0.126
20,ACGAAAAG,0.218
21,GAAAAAGC,0.0697
22,ATCTTAAG,0.0565
23,CTTAACTA,0.142
24,CTAGTGAG,-0.0339
25,CGTCTGAC,0.15

row,Sequence,PBM E-score
1,TGTAACAA,0.0346
2,CAGGTGGA,-0.203
3,ACTTTCAT,0.0673
4,AATAGGGC,0.0151
5,ATTCTCAG,-0.0263
6,ATCAGAAA,-0.159
7,AACGCCCC,-0.0138
8,AATCCTTG,-0.213
9,GGAGGCGA,-0.179
10,AGCTGAGC,-0.149
11,CTGCGATC,-0.144
12,AAAGGCAT,0.0285
13,AAGTCAAC,0.0281
14,CAGCGACC,-0.171
15,AATATCAC,0.441
16,AGTTCTCG,0.0252
17,TCGCCAAA,-0.0101
18,ATTTGCTG,0.106
19,CCTCATTA,0.133
20,ATCTTAAA,0.0373
21,ATACTTCA,0.0492
22,ACGGCTCT,0.227

# Source: the supplement of paper PMC3334620
